PubChem BioAssay AID1159598 – NIAID, 2016
Shown is an unselected part of 756 reagents. Over the whole deposit, 142 (19%) got an active call. 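Active includes both higher and lower reporter signal; each gene has six separate siRNAs, and no gene-level summary is deposited.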 Unmarked entries are inactive. Reagents against one gene are numbered here. No sequences are given here. Not stated in the record: the amount of reagent.

Aim: 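Knock-downs that alter flagellin-driven TNF reporter signal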
Cell system: human THP-1 B5 reporter cells made macrophage-like with PMA
Reagents: single siRNA against human genes
Time to read-out: reporter read 48 to 72 hours after siRNA transfection
Conditions: flagellin stimulation for 4 hours, dose not given
Measured: 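TNF promoter firefly luciferase over renilla after 4 h flagellin, plate median/MAD scaled, robust z versus negative controls, mean of replicates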
Reading the numbers: TNF reporter z-score: higher = stronger TNF promoter activity than controls
Hit rule: 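a row is called active when its replicate-mean z lies at or beyond 1.5 in either direction, so raised and lowered signal both count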
Meaning of the calls: active = reporter shifted beyond 1.5 z, up or down; inactive = reporter within 1.5 z of controls

gene knocked down	reagent no.	TNF reporter z-score
EP300 (EP300 lysine acetyltransferase)	1	0.976
EP300 (EP300 lysine acetyltransferase)	2	0.568
EP300 (EP300 lysine acetyltransferase)	3	0.752
EP300 (EP300 lysine acetyltransferase)	4	0.309
EP300 (EP300 lysine acetyltransferase)	5	0.44
EP300 (EP300 lysine acetyltransferase)	6	0.698
PIK3R3 (phosphoinositide-3-kinase regulatory subunit 3)	1	0.451
PIK3R3 (phosphoinositide-3-kinase regulatory subunit 3)	2	-0.253
PIK3R3 (phosphoinositide-3-kinase regulatory subunit 3)	3	-0.961
PIK3R3 (phosphoinositide-3-kinase regulatory subunit 3)	4	-1.15
PIK3R3 (phosphoinositide-3-kinase regulatory subunit 3)	5	-0.793
PIK3R3 (phosphoinositide-3-kinase regulatory subunit 3)	6	-3.94 (active)
MAPK3 (mitogen-activated protein kinase 3)	1	-1
MAPK3 (mitogen-activated protein kinase 3)	2	-0.524
MAPK3 (mitogen-activated protein kinase 3)	3	-1.94 (active)
MAPK3 (mitogen-activated protein kinase 3)	4	-0.0576
MAPK3 (mitogen-activated protein kinase 3)	5	-0.412
MAPK3 (mitogen-activated protein kinase 3)	6	-2.02 (active)
ITGAX (integrin subunit alpha X)	1	-0.626
ITGAX (integrin subunit alpha X)	2	-0.753
ITGAX (integrin subunit alpha X)	3	0.247
ITGAX (integrin subunit alpha X)	4	-1.59 (active)
ITGAX (integrin subunit alpha X)	5	-0.308
ITGAX (integrin subunit alpha X)	6	-0.559
TBKBP1 (TBK1 binding protein 1)	1	-0.0171
TBKBP1 (TBK1 binding protein 1)	2	-0.0351
TBKBP1 (TBK1 binding protein 1)	3	0.69
TBKBP1 (TBK1 binding protein 1)	4	0.473
TBKBP1 (TBK1 binding protein 1)	5	-0.161
TBKBP1 (TBK1 binding protein 1)	6	-0.829
MAPK9 (mitogen-activated protein kinase 9)	1	-0.195
MAPK9 (mitogen-activated protein kinase 9)	2	-1.21
MAPK9 (mitogen-activated protein kinase 9)	3	-0.259
MAPK9 (mitogen-activated protein kinase 9)	4	1.15
MAPK9 (mitogen-activated protein kinase 9)	5	-0.165
MAPK9 (mitogen-activated protein kinase 9)	6	0.0511
NFKBIE (NFKB inhibitor epsilon)	1	-1.83 (active)
NFKBIE (NFKB inhibitor epsilon)	2	-0.952
NFKBIE (NFKB inhibitor epsilon)	3	-1.77 (active)
NFKBIE (NFKB inhibitor epsilon)	4	-1.99 (active)
NFKBIE (NFKB inhibitor epsilon)	5	-0.597
NFKBIE (NFKB inhibitor epsilon)	6	-2.49 (active)
MAP2K2 (mitogen-activated protein kinase kinase 2)	1	-0.235
MAP2K2 (mitogen-activated protein kinase kinase 2)	2	-0.268
MAP2K2 (mitogen-activated protein kinase kinase 2)	3	-0.861
MAP2K2 (mitogen-activated protein kinase kinase 2)	4	0.818
MAP2K2 (mitogen-activated protein kinase kinase 2)	5	0.164
MAP2K2 (mitogen-activated protein kinase kinase 2)	6	0.446
MAP3K8 (mitogen-activated protein kinase kinase kinase 8)	1	-2.02 (active)
MAP3K8 (mitogen-activated protein kinase kinase kinase 8)	2	-1.54 (active)
MAP3K8 (mitogen-activated protein kinase kinase kinase 8)	3	-2.38 (active)
MAP3K8 (mitogen-activated protein kinase kinase kinase 8)	4	-1.65 (active)
MAP3K8 (mitogen-activated protein kinase kinase kinase 8)	5	-2.14 (active)
MAP3K8 (mitogen-activated protein kinase kinase kinase 8)	6	-0.63
MAP2K4 (mitogen-activated protein kinase kinase 4)	1	-1.35
MAP2K4 (mitogen-activated protein kinase kinase 4)	2	-1.22
MAP2K4 (mitogen-activated protein kinase kinase 4)	3	0.159
MAP2K4 (mitogen-activated protein kinase kinase 4)	4	0.634
MAP2K4 (mitogen-activated protein kinase kinase 4)	5	-0.0755
MAP2K4 (mitogen-activated protein kinase kinase 4)	6	-1.01
TLR5 (toll like receptor 5)	1	-5.33 (active)
TLR5 (toll like receptor 5)	2	-2.16 (active)
TLR5 (toll like receptor 5)	3	-3.69 (active)
TLR5 (toll like receptor 5)	4	-3.63 (active)
TLR5 (toll like receptor 5)	5	-2.28 (active)
TLR5 (toll like receptor 5)	6	-4.28 (active)
PTPN6 (protein tyrosine phosphatase non-receptor type 6)	1	-1.12
PTPN6 (protein tyrosine phosphatase non-receptor type 6)	2	0.242
PTPN6 (protein tyrosine phosphatase non-receptor type 6)	3	0.139
PTPN6 (protein tyrosine phosphatase non-receptor type 6)	4	-1.69 (active)
PTPN6 (protein tyrosine phosphatase non-receptor type 6)	5	-1.32
PTPN6 (protein tyrosine phosphatase non-receptor type 6)	6	-0.954
IRF5 (interferon regulatory factor 5)	1	-3.81 (active)
IRF5 (interferon regulatory factor 5)	2	-0.862
IRF5 (interferon regulatory factor 5)	3	0.29
IRF5 (interferon regulatory factor 5)	4	0.0714
IRF5 (interferon regulatory factor 5)	5	-0.776
IRF5 (interferon regulatory factor 5)	6	0.809
TLR4 (toll like receptor 4)	1	-0.197
TLR4 (toll like receptor 4)	2	-0.809
TLR4 (toll like receptor 4)	3	0.164
TLR4 (toll like receptor 4)	4	0.612
TLR4 (toll like receptor 4)	5	-0.404
TLR4 (toll like receptor 4)	6	-0.61
PIK3R2 (phosphoinositide-3-kinase regulatory subunit 2)	1	0.837
PIK3R2 (phosphoinositide-3-kinase regulatory subunit 2)	2	-0.227
PIK3R2 (phosphoinositide-3-kinase regulatory subunit 2)	3	0.321
PIK3R2 (phosphoinositide-3-kinase regulatory subunit 2)	4	-0.438
PIK3R2 (phosphoinositide-3-kinase regulatory subunit 2)	5	-1.79 (active)
PIK3R2 (phosphoinositide-3-kinase regulatory subunit 2)	6	-1.04
NFKBIA (NFKB inhibitor alpha)	1	0.0133
NFKBIA (NFKB inhibitor alpha)	2	0.322
NFKBIA (NFKB inhibitor alpha)	3	-0.192
NFKBIA (NFKB inhibitor alpha)	4	-1.92 (active)
NFKBIA (NFKB inhibitor alpha)	5	-2.35 (active)
NFKBIA (NFKB inhibitor alpha)	6	-0.683

Single entries from above:
For “TNF reporter z-score”, PIK3R3 (phosphoinositide-3-kinase regulatory subunit 3) #3 shows -0.961
Result of MAPK9 (mitogen-activated protein kinase 9) #1 under “TNF reporter z-score”: -0.195
Result of IRF5 (interferon regulatory factor 5) #6 in “TNF reporter z-score”: 0.809
Entry of TLR5 (toll like receptor 5) #4 in “TNF reporter z-score”: -3.63 (active)
For “TNF reporter z-score”, ITGAX (integrin subunit alpha X) #5 reads -0.308
Entry of EP300 (EP300 lysine acetyltransferase) #6 under “TNF reporter z-score”: 0.698

Additional records follow.
gene knocked down	reagent no.	TNF reporter z-score
IRF9 (interferon regulatory factor 9)	1	0.439
IRF9 (interferon regulatory factor 9)	2	0.195
IRF9 (interferon regulatory factor 9)	3	-0.993
IRF9 (interferon regulatory factor 9)	4	-2 (active)
IRF9 (interferon regulatory factor 9)	5	-0.712
IRF9 (interferon regulatory factor 9)	6	-0.858
IRAK1 (interleukin 1 receptor associated kinase 1)	1	-1.1
IRAK1 (interleukin 1 receptor associated kinase 1)	2	-1.94 (active)
IRAK1 (interleukin 1 receptor associated kinase 1)	3	-5.23 (active)
IRAK1 (interleukin 1 receptor associated kinase 1)	4	-1.38
IRAK1 (interleukin 1 receptor associated kinase 1)	5	-3.11 (active)
IRAK1 (interleukin 1 receptor associated kinase 1)	6	-2.29 (active)
LY96 (lymphocyte antigen 96)	1	-0.392
LY96 (lymphocyte antigen 96)	2	-0.223
LY96 (lymphocyte antigen 96)	3	0.503
LY96 (lymphocyte antigen 96)	4	-0.84
LY96 (lymphocyte antigen 96)	5	0.409
LY96 (lymphocyte antigen 96)	6	-0.143
CYLD (CYLD lysine 63 deubiquitinase)	1	-1.22
CYLD (CYLD lysine 63 deubiquitinase)	2	-0.613
CYLD (CYLD lysine 63 deubiquitinase)	3	-1.17
CYLD (CYLD lysine 63 deubiquitinase)	4	-0.418
CYLD (CYLD lysine 63 deubiquitinase)	5	-0.972
CYLD (CYLD lysine 63 deubiquitinase)	6	-1.31
RAC1 (Rac family small GTPase 1)	1	-0.053
RAC1 (Rac family small GTPase 1)	2	-1.77 (active)
RAC1 (Rac family small GTPase 1)	3	0.073
RAC1 (Rac family small GTPase 1)	4	-0.448
RAC1 (Rac family small GTPase 1)	5	-0.234
RAC1 (Rac family small GTPase 1)	6	-1.41
NFKBIB (NFKB inhibitor beta)	1	-0.969
NFKBIB (NFKB inhibitor beta)	2	0.357
NFKBIB (NFKB inhibitor beta)	3	-0.812
NFKBIB (NFKB inhibitor beta)	4	-1.11
NFKBIB (NFKB inhibitor beta)	5	-0.152
NFKBIB (NFKB inhibitor beta)	6	-0.477
TANK (TRAF family member associated NFKB activator)	1	0.342
TANK (TRAF family member associated NFKB activator)	2	0.0392
TANK (TRAF family member associated NFKB activator)	3	-0.567
TANK (TRAF family member associated NFKB activator)	4	1.39
TANK (TRAF family member associated NFKB activator)	5	-2.14 (active)
TANK (TRAF family member associated NFKB activator)	6	-2.36 (active)
IRF7 (interferon regulatory factor 7)	1	-1.08
IRF7 (interferon regulatory factor 7)	2	-0.535
IRF7 (interferon regulatory factor 7)	3	-0.691
IRF7 (interferon regulatory factor 7)	4	-0.105
IRF7 (interferon regulatory factor 7)	5	-1.77 (active)
IRF7 (interferon regulatory factor 7)	6	-1.59 (active)
